The target of experiment [1] is EZH2 (mouse (endogenous in 4T1)), Q61188. Briefly: co-IP; nuclear lysates (Nuclear Complex Co-IP Kit) of 4T1 cells, including sg-Ctrl and Nup210 KO cells; 200–500 μg lysate with 2 μg antibody and Dynabeads Protein G overnight at 4 °C, western blot. The settings on record: remark: other sources report otherwise.
Experiment [2] deals with NUP210-Myc (stably overexpressed in 4T1 cells) (mouse) (UniProt Q9QY81). Described as above.

Chains of the proteins cited; added tags and fusions are not shown. Residues count along the entry.
UniProt Q9QY81, residues 27-1886: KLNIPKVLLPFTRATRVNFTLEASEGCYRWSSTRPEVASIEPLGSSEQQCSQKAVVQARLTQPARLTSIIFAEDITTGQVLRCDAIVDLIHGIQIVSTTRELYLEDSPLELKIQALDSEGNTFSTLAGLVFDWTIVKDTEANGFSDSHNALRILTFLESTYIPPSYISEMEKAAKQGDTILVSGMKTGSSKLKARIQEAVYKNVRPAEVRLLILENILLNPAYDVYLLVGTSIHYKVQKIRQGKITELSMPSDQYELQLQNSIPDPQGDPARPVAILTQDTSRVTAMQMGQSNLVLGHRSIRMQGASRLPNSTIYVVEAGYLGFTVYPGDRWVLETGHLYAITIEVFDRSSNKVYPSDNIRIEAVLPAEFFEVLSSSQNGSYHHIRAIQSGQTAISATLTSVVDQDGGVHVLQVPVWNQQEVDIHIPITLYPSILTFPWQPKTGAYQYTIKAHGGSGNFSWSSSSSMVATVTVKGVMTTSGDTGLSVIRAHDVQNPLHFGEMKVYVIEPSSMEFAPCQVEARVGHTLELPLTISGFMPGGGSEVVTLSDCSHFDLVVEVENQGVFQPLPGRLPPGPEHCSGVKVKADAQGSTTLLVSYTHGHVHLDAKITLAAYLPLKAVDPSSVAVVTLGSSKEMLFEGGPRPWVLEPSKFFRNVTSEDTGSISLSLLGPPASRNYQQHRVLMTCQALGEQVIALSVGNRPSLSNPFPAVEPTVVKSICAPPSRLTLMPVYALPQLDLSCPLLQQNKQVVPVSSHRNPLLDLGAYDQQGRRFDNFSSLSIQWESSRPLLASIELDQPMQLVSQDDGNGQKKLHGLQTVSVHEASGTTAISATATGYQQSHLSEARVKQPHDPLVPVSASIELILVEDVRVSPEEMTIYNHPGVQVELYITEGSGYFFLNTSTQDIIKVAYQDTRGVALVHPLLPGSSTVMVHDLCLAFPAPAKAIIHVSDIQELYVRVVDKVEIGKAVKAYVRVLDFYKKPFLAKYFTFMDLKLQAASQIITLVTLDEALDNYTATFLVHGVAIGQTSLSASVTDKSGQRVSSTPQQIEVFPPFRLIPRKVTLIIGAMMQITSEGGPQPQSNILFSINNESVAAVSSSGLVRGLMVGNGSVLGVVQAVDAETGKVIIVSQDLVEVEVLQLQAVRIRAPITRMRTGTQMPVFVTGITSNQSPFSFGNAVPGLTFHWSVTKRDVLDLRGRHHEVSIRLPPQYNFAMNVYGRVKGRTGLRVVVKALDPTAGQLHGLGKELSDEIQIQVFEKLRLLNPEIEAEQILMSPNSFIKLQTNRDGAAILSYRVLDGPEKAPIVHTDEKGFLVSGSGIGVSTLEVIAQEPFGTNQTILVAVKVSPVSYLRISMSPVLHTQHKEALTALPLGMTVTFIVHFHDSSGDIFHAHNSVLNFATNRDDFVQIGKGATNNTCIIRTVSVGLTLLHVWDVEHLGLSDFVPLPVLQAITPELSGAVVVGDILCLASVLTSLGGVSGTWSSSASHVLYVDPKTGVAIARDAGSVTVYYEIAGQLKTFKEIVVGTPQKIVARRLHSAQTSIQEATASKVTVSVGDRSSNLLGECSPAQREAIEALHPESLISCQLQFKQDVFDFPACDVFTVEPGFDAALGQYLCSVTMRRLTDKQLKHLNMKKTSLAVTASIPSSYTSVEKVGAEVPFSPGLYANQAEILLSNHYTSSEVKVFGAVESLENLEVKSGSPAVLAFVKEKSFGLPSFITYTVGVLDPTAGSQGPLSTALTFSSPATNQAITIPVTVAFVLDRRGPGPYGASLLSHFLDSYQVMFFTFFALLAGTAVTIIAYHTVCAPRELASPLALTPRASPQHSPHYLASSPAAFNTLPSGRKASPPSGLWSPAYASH

Results are given in words; binding and its absence hold for the method and conditions named. In cells and extracts the contact can be indirect. Some binding calls cover weakened binding; strength is not graded here.

B1: SUZ12, Q80U70 1-741 (protein)
chain: MAPQKHGGGGGGGSGPSAGSGGGGFGGSAAAVAAAASGGKSGGGGCGGGGSYSASSSSAAAAAAAAGAAVLPVKKPKMEHVQADHELFLQAFEKPTQIYRFLRTRNLIAPIFLHRTLTYMSHRNSRTSIKRKTFKVDDMLSKVEKMKGEQESHSLSAHLQLTFTGFFHKNDKPSQNSENEQNSVTLEVLLVKVCHKKRKDVSCPIRQVPTGKKQVPLNPDLNQTKPGNFPSLAVSSNEFEPSNSHMVKSYSLLFRVTRPGRREFNGMINGETNENIDVSEELPARRKRNREDGEKTFVAQMTVFDKNRRLQLLDGEYEVAMQEMEECPISKKRATWETILDGKRLPPFETFSQGPTLQFTLRWTGETNDKSTAPVAKPLATRNSESLHQENKPGSVKPAQTIAVKETLTTELQTRKEKDNSNESRQKLRIFYQFLYNNNTRQQTEARDDLHCPWCTLNCRKLYSLLKHLKLCHSRFIFNYVYHPKGARIDVSINECYDGSYAGNPQDIHRQPGFAFSRNGPVKRTPITHILVCRPKRTKASMSEFLESEDGEVEQQRTYSSGHNRLYFHSDTCLPLRPQEMEVDSEDEKDPEWLREKTITQIEEFSDVNEGEKEVMKLWNLHVMKHGFIADNQMNHACMLFVENYGQKIIKKNLCRNFMLHLVSMHDFNLISIMSIDKAVTKLREMQQKLEKGESATPSNEEIAEEQNGTANGFSETNSKEKALETDGVSGVPKQSKKQKL
As for B1, in experiment [1], the binding result is given as “binds”.

B2: SUN1 (protein, UniProt Q9D666 1-913)
chain: MDFSRLHTYTPPQCVPENTGYTYALSSSYSSDALDFETEHKLEPVFDSPRMSRRSLRLVTTASYSSGDSQAIDSHISTSRATPAKGRETRTVKQRRSASKPAFSINHLSGKGLSSSTSHDSSCSLRSATVLRHPVLDESLIREQTKVDHFWGLDDDGDLKGGNKAATQGNGELAAEVASSNGYTCRDCRMLSARTDALTAHSAIHGTTSRVYSRDRTLKPRGVSFYLDRTLWLAKSTSSSFASFIVQLFQVVLMKLNFETYKLKGYESRAYESQSYETKSHESEAHLGHCGRMTAGELSRVDGESLCDDCKGKKHLEIHTATHSQLPQPHRVAGAMGRLCIYTGDLLVQALRRTRAAGWSVAEAVWSVLWLAVSAPGKAASGTFWWLGSGWYQFVTLISWLNVFLLTRCLRNICKVFVLLLPLLLLLGAGVSLWGQGNFFSLLPVLNWTAMQPTQRVDDSKGMHRPGPLPPSPPPKVDHKASQWPQESDMGQKVASLSAQCHNHDERLAELTVLLQKLQIRVDQVDDGREGLSLWVKNVVGQHLQEMGTIEPPDAKTDFMTFHHDHEVRLSNLEDVLRKLTEKSEAIQKELEETKLKAGSRDEEQPLLDRVQHLELELNLLKSQLSDWQHLKTSCEQAGARIQETVQLMFSEDQQGGSLEWLLEKLSSRFVSKDELQVLLHDLELKLLQNITHHITVTGQAPTSEAIVSAVNQAGISGITEAQAHIIVNNALKLYSQDKTGMVDFALESGGGSILSTRCSETYETKTALLSLFGVPLWYFSQSPRVVIQPDIYPGNCWAFKGSQGYLVVRLSMKIYPTTFTMEHIPKTLSPTGNISSAPKDFAVYGLETEYQEEGQPLGRFTYDQEGDSLQMFHTLERPDQAFQIVELRVLSNWGHPEYTCLYRFRVHGEPIQ
Take B2: the binding result in experiment [2] is “no binding”.

B3: SUN2 (protein, UniProt Q8BJS4 1-731)
chain: MSRRSQRLTRYSQDDNDGGSSSSGASSVAGSQGTVFKDSPLRTLKRKSSNMKHLSPAPQLGPSSDSHTSYYSESVVRESYIGSPRAVSLARSALLDDHLHSEPYWSGDLRGRRRRGTGGSESSKANGLTAESKASEDFFGSSSGYSSEDDLAGYTDSDQHSSGSRLRSAASRAGSFVWTLVTFPGRLFGLLYWWIGTTWYRLTTAASLLDVFVLTRSRHFSLNLKSFLWFLLLLLLLTGLTYGAWHFYPLGLQTLQPAVVSWWAAKESRKQPEVWESRDASQHFQAEQRVLSRVHSLERRLEALAADFSSNWQKEAIRLERLELRQGAAGHGGGSSLSHEDALSLLEGLVSRREATLKEDLRRDTVAHIQEELATLRAEHHQDSEDLFKKIVQASQESEARVQQLKTEWKSMTQEAFQESSVKELGRLEAQLASLRQELAALTLKQNSVADEVGLLPQKIQAARADVESQFPDWIRQFLLGDRGARSGLLQRDEMHAQLQELENKILTKMAEMQGKSAREAAASLGQILQKEGIVGVTEEQVHRIVKQALQRYSEDRIGMVDYALESGGASVISTRCSETYETKTALLSLFGIPLWYHSQSPRVILQPDVHPGNCWAFQGPQGFAVVRLSARIRPTAVTLEHVPKALSPNSTISSAPKDFAIFGFDEDLQQEGTLLGTFAYDQDGEPIQTFYFQASKMATYQVVELRILTNWGHPEYTCIYRFRVHGEPAH
For the molecule B3, in experiment [2], the binding result is recorded as “binds”.
